This note sets out measurements from publication doi:10.1101/2021.06.07.447311.

Assay [1] has as its target T1, amyloid protein TasA of Bacillus subtilis (B. subtilis) (UniProt P54507).
T1 sequence: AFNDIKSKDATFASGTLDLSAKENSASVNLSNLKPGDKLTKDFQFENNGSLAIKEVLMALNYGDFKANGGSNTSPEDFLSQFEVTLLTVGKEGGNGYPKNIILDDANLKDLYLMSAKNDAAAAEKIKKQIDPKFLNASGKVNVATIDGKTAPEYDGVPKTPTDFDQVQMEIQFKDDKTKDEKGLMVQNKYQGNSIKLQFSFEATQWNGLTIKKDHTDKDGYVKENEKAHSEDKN
In words: pull-down.

Assay [2] deals with oleosin 1 from Arabidopsis thaliana (Arabidopsis thaliana). In words: far-Western, overlay or dot blot.

Results are given in words; binding and its absence hold for the method and conditions named. A result given as binding can be weak or reduced; the word gives no strength. For some assays here: In cells and extracts the contact can be indirect.

For the molecule oleosin from melon seeds, the binding result in assay [1] is reported as “binds”.

B1: amyloid protein TasA of Bacillus subtilis (protein, UniProt P54507 28-261)
chain: AFNDIKSKDATFASGTLDLSAKENSASVNLSNLKPGDKLTKDFQFENNGSLAIKEVLMALNYGDFKANGGSNTSPEDFLSQFEVTLLTVGKEGGNGYPKNIILDDANLKDLYLMSAKNDAAAAEKIKKQIDPKFLNASGKVNVATIDGKTAPEYDGVPKTPTDFDQVQMEIQFKDDKTKDEKGLMVQNKYQGNSIKLQFSFEATQWNGLTIKKDHTDKDGYVKENEKAHSEDKN
Regarding B1, the binding entry in assay [2] was “binds”.
